Taken from: PubChem BioAssay AID1259308 (NCATS, 2017)

- Screen: 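Knock-downs that increase output of a recombinant reporter protein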 (primary screen)
- System: human HEK293 embryonic kidney cells stably expressing firefly luciferase (HEK-CMV-Luc2-Hygro)
- Knock-down reagent: single siRNA against human genes, 0.8 pmol siRNA per well
- Time to read-out: 72 h
- Measurement: 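Reporter luminescence and viable-cell signal on separate replicate plates, given as percent of non-targeting control and median/MAD z-scores, plus per-cell luciferase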
- Direction: total luciferase, z-score and total luciferase, % of control: higher = more reporter protein produced
- Active means: 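An siRNA counts as active if its total luciferase robust z-score exceeds 3; genes with two or more such siRNAs out of three were retested with fresh siRNAs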
- Calls: active = raised luciferase; inactive = no rise
Here is one part, drawn at random, of about 59,000 reagents tested. About 1,510 of all reagents (2.6%) were called active. 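Calls use total luciferase alone and ignore viability, so some active siRNAs may act by altering cell number.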 Reagents against one gene are numbered here. Further read-outs or replicates are left out here. Reagent sequences are not shown.

{"target": "SLC13A1", "siRNA no.": 1, "total luciferase, z-score": 0.0467, "total luciferase, % of control": 82.8, "Outcome": "inactive"}
{"target": "SLC13A1", "siRNA no.": 2, "total luciferase, z-score": -0.861, "total luciferase, % of control": 64.8, "Outcome": "inactive"}
{"target": "SLC13A1", "siRNA no.": 3, "total luciferase, z-score": 0.0221, "total luciferase, % of control": 82.3, "Outcome": "inactive"}
{"target": "ATM (ATM serine/threonine kinase)", "siRNA no.": 1, "total luciferase, z-score": 0.116, "total luciferase, % of control": 84.2, "Outcome": "inactive"}
{"target": "ATM (ATM serine/threonine kinase)", "siRNA no.": 2, "total luciferase, z-score": 1.92, "total luciferase, % of control": 120, "Outcome": "inactive"}
{"target": "ATM (ATM serine/threonine kinase)", "siRNA no.": 3, "total luciferase, z-score": -0.491, "total luciferase, % of control": 72.1, "Outcome": "inactive"}
{"target": "EEF1AKMT3 (EEF1A lysine methyltransferase 3)", "siRNA no.": 1, "total luciferase, z-score": -0.301, "total luciferase, % of control": 75.9, "Outcome": "inactive"}
{"target": "EEF1AKMT3 (EEF1A lysine methyltransferase 3)", "siRNA no.": 2, "total luciferase, z-score": 3.68, "total luciferase, % of control": 155, "Outcome": "active"}
{"target": "EEF1AKMT3 (EEF1A lysine methyltransferase 3)", "siRNA no.": 3, "total luciferase, z-score": 0.0786, "total luciferase, % of control": 83.4, "Outcome": "inactive"}
{"target": "FOLR2 (folate receptor beta)", "siRNA no.": 1, "total luciferase, z-score": 0.468, "total luciferase, % of control": 91.2, "Outcome": "inactive"}
{"target": "FOLR2 (folate receptor beta)", "siRNA no.": 2, "total luciferase, z-score": -1.26, "total luciferase, % of control": 56.9, "Outcome": "inactive"}
{"target": "FOLR2 (folate receptor beta)", "siRNA no.": 3, "total luciferase, z-score": -0.111, "total luciferase, % of control": 79.7, "Outcome": "inactive"}
{"target": "WRNIP1 (WRN helicase interacting protein 1)", "siRNA no.": 1, "total luciferase, z-score": 0.0797, "total luciferase, % of control": 83.5, "Outcome": "inactive"}
{"target": "WRNIP1 (WRN helicase interacting protein 1)", "siRNA no.": 2, "total luciferase, z-score": -0.34, "total luciferase, % of control": 75.1, "Outcome": "inactive"}
{"target": "WRNIP1 (WRN helicase interacting protein 1)", "siRNA no.": 3, "total luciferase, z-score": -0.554, "total luciferase, % of control": 70.9, "Outcome": "inactive"}
{"target": "PROP1 (PROP paired-like homeobox 1)", "siRNA no.": 1, "total luciferase, z-score": 3.69, "total luciferase, % of control": 155, "Outcome": "active"}
{"target": "PROP1 (PROP paired-like homeobox 1)", "siRNA no.": 2, "total luciferase, z-score": -1.15, "total luciferase, % of control": 58.9, "Outcome": "inactive"}
{"target": "PROP1 (PROP paired-like homeobox 1)", "siRNA no.": 3, "total luciferase, z-score": -0.718, "total luciferase, % of control": 67.6, "Outcome": "inactive"}
{"target": "HOXA6 (homeobox A6)", "siRNA no.": 1, "total luciferase, z-score": -0.0955, "total luciferase, % of control": 80, "Outcome": "inactive"}
{"target": "HOXA6 (homeobox A6)", "siRNA no.": 2, "total luciferase, z-score": -0.249, "total luciferase, % of control": 76.9, "Outcome": "inactive"}
{"target": "HOXA6 (homeobox A6)", "siRNA no.": 3, "total luciferase, z-score": -0.757, "total luciferase, % of control": 66.8, "Outcome": "inactive"}
{"target": "TLE4 (TLE family member 4, transcriptional corepressor)", "siRNA no.": 1, "total luciferase, z-score": -0.674, "total luciferase, % of control": 68.5, "Outcome": "inactive"}
{"target": "TLE4 (TLE family member 4, transcriptional corepressor)", "siRNA no.": 2, "total luciferase, z-score": 1.5, "total luciferase, % of control": 112, "Outcome": "inactive"}
{"target": "TLE4 (TLE family member 4, transcriptional corepressor)", "siRNA no.": 3, "total luciferase, z-score": -0.523, "total luciferase, % of control": 71.5, "Outcome": "inactive"}
{"target": "SPTSSA (serine palmitoyltransferase small subunit A)", "siRNA no.": 1, "total luciferase, z-score": 0.687, "total luciferase, % of control": 95.6, "Outcome": "inactive"}
{"target": "SPTSSA (serine palmitoyltransferase small subunit A)", "siRNA no.": 2, "total luciferase, z-score": -0.0827, "total luciferase, % of control": 80.2, "Outcome": "inactive"}
{"target": "SPTSSA (serine palmitoyltransferase small subunit A)", "siRNA no.": 3, "total luciferase, z-score": 0.547, "total luciferase, % of control": 92.8, "Outcome": "inactive"}
{"target": "PDLIM1 (PDZ and LIM domain 1)", "siRNA no.": 1, "total luciferase, z-score": 0.43, "total luciferase, % of control": 90.4, "Outcome": "inactive"}
{"target": "PDLIM1 (PDZ and LIM domain 1)", "siRNA no.": 2, "total luciferase, z-score": 0.46, "total luciferase, % of control": 91, "Outcome": "inactive"}
{"target": "PDLIM1 (PDZ and LIM domain 1)", "siRNA no.": 3, "total luciferase, z-score": -0.68, "total luciferase, % of control": 68.4, "Outcome": "inactive"}
{"target": "WFDC8 (WAP four-disulfide core domain 8)", "siRNA no.": 1, "total luciferase, z-score": 4.42, "total luciferase, % of control": 170, "Outcome": "active"}
{"target": "WFDC8 (WAP four-disulfide core domain 8)", "siRNA no.": 2, "total luciferase, z-score": -0.654, "total luciferase, % of control": 68.9, "Outcome": "inactive"}
{"target": "WFDC8 (WAP four-disulfide core domain 8)", "siRNA no.": 3, "total luciferase, z-score": -0.469, "total luciferase, % of control": 72.5, "Outcome": "inactive"}

Part of the list above, reduced to “total luciferase, % of control”.
FOLR2 (folate receptor beta) #2	56.9
FOLR2 (folate receptor beta) #3	79.7
